# Values quoted from earlier work in patent publication US11857520B2, “Therapeutic composition of intranasal lidocaine” (Nortic Holdings Inc., priority 2018, dated 2024).
# Some entries share one result that the patent states for a list of compounds.
# Details: generally recognized
row,SMILES,duration of action [h]
1,CCN(CC)CCOC(=O)c1ccc(N)cc1 [procaine],0.5 to 1
2,CCCN1CCCC[C@H]1C(=O)Nc1c(C)cccc1C [ropivacaine],1.5 to 8
3,CCN(CC)CCOC(=O)c1ccc(N)cc1Cl [chloroprocaine],0.5 to 1
4,CCCNC(C)C(=O)Nc1ccccc1C (centres unmarked) [prilocaine],0.5 to 1
5,CCCCN1CCCCC1C(=O)Nc1c(C)cccc1C (centres unmarked) [bupivacaine],1.5 to 8
